PubChem BioAssay AID1671195 – Yale University – 2021
Purpose: 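Regulators of LDL receptor activity judged by labelled LDL uptake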 (primary screen). Cell system: human Huh7 hepatoma cells. Reagent: siRNA pool against human genes, 18 nM. Time to read-out: about 2 to 2.5 days of knockdown, then 8 h LDL uptake. Conditions: DiI-labelled LDL at 30 µg/ml for 8 h, in lipoprotein-deficient serum medium. Measurement: 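Per-cell DiI-LDL intensity by automated imaging; well means scaled to the plate median and given as a robust z-score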. Reading the numbers: robust z-score: higher = more LDL uptake after knockdown. Rule for the call: 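Active when two or more replicates show a robust z-score above 2 or below -2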.
Shown is a random part of about 22,000 reagents. In the full data, about 1,510 (6.9%) were called active. 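Active includes knockdowns raising or lowering LDL uptake; positive z-scores mean more uptake, negative mean less.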 Unmarked entries are inactive. No sequences are given here.

TASOR2 (transcription activation suppressor family member 2) [SID442891214] | robust z-score, replicate 1: -0.74; robust z-score, replicate 2: 1.08; robust z-score, replicate 3: 0.605
PPP2R2B (protein phosphatase 2 regulatory subunit Bbeta) [SID442903971] | robust z-score, replicate 1: -1.33; robust z-score, replicate 2: -1.72; robust z-score, replicate 3: -1.3
DEPDC1B (DEP domain containing 1B) [SID442897665] | robust z-score, replicate 1: -1.28; robust z-score, replicate 2: -1.7; robust z-score, replicate 3: 1.75
ECEL1 (endothelin converting enzyme like 1) [SID442884830] | robust z-score, replicate 1: 2.17; robust z-score, replicate 2: 1.81; robust z-score, replicate 3: 1.57
THOC2 (THO complex subunit 2) [SID442902963] | robust z-score, replicate 1: -1.33; robust z-score, replicate 2: -0.95; robust z-score, replicate 3: -1.28
TMEM182 (transmembrane protein 182) [SID442902761] | robust z-score, replicate 1: -1.01; robust z-score, replicate 2: -1.07; robust z-score, replicate 3: -1.36
MEPCE (methylphosphate capping enzyme) [SID442883153] | robust z-score, replicate 1: 4.65 (active); robust z-score, replicate 2: 3.88; robust z-score, replicate 3: 4.76
OR2AE1 (olfactory receptor family 2 subfamily AE member 1) [SID442898638] | robust z-score, replicate 1: -0.854; robust z-score, replicate 2: -0.344; robust z-score, replicate 3: -0.366
LOC440785 (retired record) [SID442900901] | robust z-score, replicate 1: -0.76; robust z-score, replicate 2: -0.597; robust z-score, replicate 3: -1.11
MRPL45 (mitochondrial ribosomal protein L45) [SID442899109] | robust z-score, replicate 1: -0.654; robust z-score, replicate 2: -0.332; robust z-score, replicate 3: -0.746
NDUFA3 (NADH:ubiquinone oxidoreductase subunit A3) [SID442902553] | robust z-score, replicate 1: -0.578; robust z-score, replicate 2: -0.917; robust z-score, replicate 3: -1.81
LOC440308 (retired record) [SID442887577] | robust z-score, replicate 1: 0.843; robust z-score, replicate 2: 1.03; robust z-score, replicate 3: 0.772
SEC24D (SEC24 homolog D, COPII component) [SID442896290] | robust z-score, replicate 1: -0.48; robust z-score, replicate 2: -0.585; robust z-score, replicate 3: 0.293
HAO2 (hydroxyacid oxidase 2) [SID442899077] | robust z-score, replicate 1: -0.175; robust z-score, replicate 2: -0.789; robust z-score, replicate 3: -0.757
RIN3 (Ras and Rab interactor 3) [SID442888187] | robust z-score, replicate 1: 1.11; robust z-score, replicate 2: 0.695; robust z-score, replicate 3: 0.501
PSMB4 (proteasome 20S subunit beta 4) [SID442889942] | robust z-score, replicate 1: 0.602; robust z-score, replicate 2: 0.232; robust z-score, replicate 3: 0.621

Copied from the list.
Under “robust z-score, replicate 1”, MEPCE (methylphosphate capping enzyme) [SID442883153] has 4.65 (active)
For “robust z-score, replicate 3”, LOC440785 (retired record) [SID442900901] reads -1.11
